Results reported in PubChem BioAssay AID504834 (National Center for Advancing Translational Sciences (NCATS), 2011).
Hit rate of the full screen: of about 320,000 compounds, about 22,000 (6.9%) were called active. The shares of active, inactive and inconclusive entries below differ from those in the screen. Calls follow the shape of the dose curve; as a rule, active = well fitted inhibition curve with a large enough effect; inconclusive = small, poorly fitted or top-dose-only effect, or another doubt; inactive = no such curve, though single readings can be large or run the other way. Where the call is inconclusive, the potency comes from a doubtful curve fit.

Experiment: Primary qHTS for delayed death inhibitors of the malarial parasite plastid, 96 hour incubation
Settings: P. falciparum luciferase reporter growth; series mostly up to 28.7 µM
Summary of the method: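 Delayed-death screen, second-generation endpoint: infected erythrocytes, 2% hematocrit, 0.05% parasitemia final; 96 hours at 37 C, 5% CO2; luciferase detection reagent; luminescence decrease equals reduced growth.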
Potency is read from the fitted curve at half-maximal effect.

Row | Compound | Potency
1 | CCN1C(=O)[C@@H]2[C@H](C1=O)[C@@H]1C(=O)Nc3ccccc3C(=O)N1[C@@H]2c1ccc(OC)cc1 | inconclusive: 18.5 µM [inhibitor, single point]
2 | c1ccc(-c2cn(-c3ccccc3)c3[n+]2CCCS3)cc1 | inconclusive: 2.08 µM [inhibitor, single point]
3 | Cc1ccccc1C(=O)NC1CCN(C(=O)N(c2ccccc2)c2ccccc2)CC1 | inconclusive: 10.4 µM [inhibitor, partial curve]
4 | O=[N+]([O-])c1ccccc1Sc1nccn1Cc1ccccc1 | active: 3.29 µM
5 | Cc1csc(CNC(=O)C2CCC(=O)N(CCCc3ccccc3)C2)n1 (stereo not given) | inconclusive: 16.5 µM [inhibitor, partial curve, poor fit]
6 | CC(=O)c1ccc(N2CCN(C(=O)CCC(=O)c3cccs3)CC2)cc1 | inconclusive: 10.4 µM [inhibitor, partial curve, poor fit]
7 | COc1ccc(NC(=O)Cn2c(CCC(=O)O)ccc2-c2ccccc2)cc1 | inactive
8 | O=C(NCCc1ccc(Cl)cc1Cl)c1cncc(Br)c1 | inactive
9 | ONC(=Nc1ccccc1Cl)c1ccccc1Cl | inconclusive: 18.5 µM [inhibitor, single point]
10 | COc1ccc(C(C)=O)c(Oc2ccc(S(=O)(=O)N3CCOCC3)cn2)c1 | inconclusive: 7.38 µM [inhibitor, partial curve, poor fit]
11 | Cc1cccc(NC(=O)CN2CCC(NC(=O)C3CCCCC3)CC2)c1C | active: 4.15 µM
12 | CCCCCCC(=O)N1CCC(c2nc3c(nnn3Cc3ccccc3Cl)c(=O)[nH]2)CC1 | inconclusive: 11.7 µM [inhibitor, single point]
13 | COc1ccc(S(=O)(=O)N2CCC(C(=O)Oc3c(OC)cccc3OC)CC2)cc1OC | inconclusive: 5.22 µM [inhibitor, partial curve]
14 | Cc1ccc(C)c(N(C)C(=O)COc2cc(=O)n(C)c3ccccc23)c1 | inconclusive: 18.5 µM [inhibitor, single point]
15 | COc1ccccc1CNC(=O)COc1ccc(C)cc1 | inconclusive: 0.657 µM [inhibitor, full curve, poor fit]
16 | Fc1cccc(CCN2C(=S)NC[C@@H]2CC2CCCCC2)c1 | inconclusive: 2.08 µM [inhibitor, full curve]
17 | CC1=CCC(/C=N\Nc2nnc3c(n2)[nH]c2ccccc23)CC1 (stereo not given) | inconclusive: 18.5 µM [inhibitor, single point]
18 | CSc1nc2ncc(C(=O)O)c(N)n2n1 | inactive
19 | Cc1[nH]c(=O)[nH]c(=O)c1S(=O)(=O)NCCc1ccc(S(N)(=O)=O)cc1 | inactive
20 | CCOc1ccc(S(=O)(=O)NCCC(=O)NCC(c2ccccc2OC)N2CCCC2)cc1 (stereo not given) | inconclusive: 18.5 µM [inhibitor, single point]

Row | Compound | Potency
21 | N#CCC(=O)N/N=C/c1cn(Cc2cccc3ccccc23)c2ccccc12 | inconclusive: 4.15 µM [inhibitor, partial curve, poor fit]
22 | O=C(CCC1CCCC1)N1CCN(S(=O)(=O)c2ccc(Br)cc2)CC1 | inconclusive: 16.5 µM [inhibitor, partial curve, poor fit]
23 | CCCCN(C)C(=O)C(Cc1ccccc1)NS(=O)(=O)c1ccc2c(c1)CCC(=O)N2 (stereo not given) | inconclusive: 16.5 µM [inhibitor, partial curve, poor fit]
24 | O=C(Nc1cccc(S(=O)(=O)N2CCOCC2)c1)C(c1ccccc1)N1CCCCC1 (stereo not given) | inconclusive: 13.1 µM [inhibitor, partial curve]
25 | O=C(COC(=O)c1ccc(O)cc1)c1ccc2c(c1)OCCO2 | inconclusive: 14.7 µM [inhibitor, single point]
26 | CCOc1ccc(NC(=O)CCC(=O)c2ccc(F)cc2)cc1 | inconclusive: 13.1 µM [inhibitor, single point]
27 | CCOC(=O)c1cccc2c(=O)c(C(=O)c3ccc(Cl)cc3)c(C(=O)OC)[nH]c12 | inactive
28 | COc1ccc(CNC(=O)CNC(c2ccccc2)c2ccccc2)cc1OC | inconclusive: 10.4 µM [inhibitor, single point]
29 | Cc1cccc(CN(CC(=O)N/N=C/c2cccs2)S(=O)(=O)c2ccc(Cl)cc2)c1 | inconclusive: 13.1 µM [inhibitor, partial curve]
30 | CC(C)CC(NC(=O)CCl)c1ccccc1 (stereo not given) | inconclusive: 0.0657 µM [inhibitor, full curve, poor fit]
31 | COc1ccc(C2=NOC(C(=O)NC(C)(C)C)C2)cc1 (stereo not given) | inconclusive: 10.4 µM [inhibitor, single point]
32 | Cc1ccccc1C(=O)NC1CCN(C(=O)NCc2ccccc2)CC1 | inconclusive: 16.5 µM [inhibitor, single point]
33 | COCCNC(=O)CSc1nc2cc3c(cc2c(=O)n1Cc1ccco1)OCO3 | inactive
34 | CCCCn1c(N)c(N(CCOC)C(=O)c2ccc(N(C)S(=O)(=O)c3ccc(C)cc3)cc2)c(=O)[nH]c1=O | inconclusive: 13.1 µM [inhibitor, partial curve, poor fit]
35 | COc1cc(NC(=O)c2ccccc2)c(OC)cc1NC(=O)CN1CCOCC1 | inconclusive: 2.08 µM [inhibitor, partial curve, poor fit]
36 | CCOc1cc(/C=C2/NC(=S)NC2=O)ccc1OCc1ccc([N+](=O)[O-])cc1 | inconclusive: 4.65 µM [inhibitor, partial curve, poor fit]
37 | CCS(=O)(=O)c1ccc2oc(SCC(=O)NC34CC5CC(CC(C5)C3)C4)nc2c1 | inconclusive: 11.7 µM [inhibitor, partial curve, poor fit]
38 | COc1ccc(N2CCN(S(=O)(=O)c3ccc4c(c3)N(C(C)=O)CCO4)CC2)cc1 | inconclusive: 18.5 µM [inhibitor, partial curve, poor fit]
39 | CC(SCc1ccccc1)C(=O)Nc1ccccc1-c1ccccc1 (stereo not given) | inactive
40 | COc1ccc(CCNC(=O)CCc2ccc(S(=O)(=O)NC(C)C)cc2)cc1OC | inconclusive: 18.5 µM [inhibitor, single point]

Three entries out of the list, arranged by molar mass, low to high.
Row | Compound | Potency
16 | Fc1cccc(CCN2C(=S)NC[C@@H]2CC2CCCCC2)c1 | inconclusive: 2.08 µM [inhibitor, full curve]
10 | COc1ccc(C(C)=O)c(Oc2ccc(S(=O)(=O)N3CCOCC3)cn2)c1 | inconclusive: 7.38 µM [inhibitor, partial curve, poor fit]
3 | Cc1ccccc1C(=O)NC1CCN(C(=O)N(c2ccccc2)c2ccccc2)CC1 | inconclusive: 10.4 µM [inhibitor, partial curve]
